From article PMC4446440, “Structural and functional analysis reveals that human OASL binds dsRNA to enhance RIG-I signaling” (Nucleic Acids Research, 2015) come the findings set out here.

A weaker result is weaker than the reference pair of the same experiment. Protein sequences can lack the tags named with them.

For data set [1], the target named is T1, OLD K66E (Homo sapiens) (UniProt Q15646).
T1 sequence (looked up): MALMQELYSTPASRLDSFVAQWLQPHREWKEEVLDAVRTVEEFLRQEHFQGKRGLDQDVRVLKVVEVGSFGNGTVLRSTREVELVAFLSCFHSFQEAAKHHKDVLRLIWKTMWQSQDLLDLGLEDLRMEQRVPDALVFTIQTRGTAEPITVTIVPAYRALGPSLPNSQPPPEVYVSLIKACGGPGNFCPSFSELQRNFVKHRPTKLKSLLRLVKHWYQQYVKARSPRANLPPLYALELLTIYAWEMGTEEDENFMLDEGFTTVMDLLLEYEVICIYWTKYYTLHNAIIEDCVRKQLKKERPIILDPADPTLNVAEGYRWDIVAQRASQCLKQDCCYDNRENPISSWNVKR
Put plainly: EMSA (RNA retention). Particulars: dsRNA 10 uM, K66E 0-56 uM, impairment partly overcome at higher concentration; 100 mM DL-malic acid pH 5.9, 200 (unit not given) Na2SO4, 300 mM NaCl, 1.5 mM MgCl2, 2 mM BME, 5% glycerol; 37 C 15 min; native PAGE in 0.5x TBE; recombinant protein; residues 1-350; protein details: C-terminal 6xHis.

The target of data set [2] is T1, OLD K66E (Homo sapiens). Nature of the data set: EMSA. As to conditions: OLD K66E 2.4 uM, dsRNA 8.6 uM, protein stained/immunoblot, 1.5 mM Mg2+; 100 mM DL-malic acid pH 5.9, 200 (unit not given) Na2SO4, 300 mM NaCl, 1.5 mM MgCl2, 2 mM BME, 5% glycerol; 37 C 15 min; native PAGE in 0.5x TBE; recombinant protein; residues 1-350; protein details: C-terminal 6xHis.

Regarding “GGCUUUUGACCUUUAUGC / GCAUAAAGGUCAAAAGCC [18 bp dsRNA]”, the binding result with OLD K66E (Homo sapiens) [1] and with OLD K66E (Homo sapiens) [2] was “binds more weakly” throughout.
